Laboratory results: patent US10050214B2, “Near-ultraviolet stimulated light-emitting compound and production method for same” (NANO CMS CO., LTD., priority 2014, dated 2018)

How the values were obtained:
[1] = Fluorescent intensity measurement with fluorescence spectrometer, 365 nm stimulation, solid phase; assay type: physicochemical; parameters: key to Fluorescent Intensity (UV light 365 nm stimulated) Solid Phase: −: not measured; +: very low; ++: low; +++: medium; ++++: high; +++++: very high
Description: The obtained quinazolinone compound was irradiated with near-UV light in the wavelength of 365 nm, and the intensity of discharged fluorescence was measured. The fluorescent intensity was measured using a fluorescence spectrometer (DARSA-5000, PSI Co., Ltd.), under the condition of 365 nm stimulation wavelength, cumulative average of five-time measurements, and 1024×128 CCD sensor shape. In addition, measurement of residual fluorescent intensity after artificial light exposure was repeated identically according to ASTM G 154-06 Cycle 1 standard.

[2] = Fluorescence discharged in the range 400~700 nm on 365 nm near-ultraviolet irradiation; assay type: physicochemical; parameters: key to Fluorescence Intensity: −: not measured; +: very low; ++: low; +++: medium; ++++: high; +++++: very high; details: 365 nm irradiation; for Fluorescence Intensity: emission 400~700 nm
Description: Further, the melting point was measured using the melting point measuring instrument (M5000, KRÜSS GmbH), by assuming that the phase change is at the point where the change in transmissivity reaches 20%. Solubility in organic solvents was measured with respect to eight product items.

Row | SMILES | Fluorescent Color Solid Phase [1] | Fluorescent Intensity (UV light 365 nm stimulated) Solid Phase [1] | Emmax (nm) [2] | Fluorescence Intensity [2]
1 | O=c1[nH]c(-c2cc(Cl)ccc2O)nc2ccccc12 [Embodiment 4, 2-(5-chloro-2-hydroxyphenyl)quinazoline-4(3H)-on] | Green | ++++ |  | 
2 | O=c1[nH]c(-c2cc(Cl)ccc2O)nc2ccc(Cl)cc12 [Embodiment 5, 6-choloro-2-(5-chloro-2-hydroxyphenyl)quinazoline-4(3H)-on] | Yellow | ++ |  | 
3 | O=c1[nH]c(-c2cc(Cl)ccc2O)nc2cc(Cl)ccc12 [Embodiment 6, 7-chloro-2-(5-chloro-2-hydroxyphenyl)quinazoline-4(3H)-on] | Yellow-green | +++ | 527 nm | +++
4 | COc1ccc(-c2nc3ccccc3c(=O)[nH]2)c(O)c1 [Embodiment 7, 2-(2-hydroxy-4-methoxyphenyl)quinazoline-4-(3H)-on] | Turquoise | ++ |  | 
5 | COc1ccc(-c2nc3ccc(Cl)cc3c(=O)[nH]2)c(O)c1 [Embodiment 8, 6-chloro-2-(2-hydroxy-4-methoxyphenyl)quinazoline-4(3H)-on] | Turquoise | ++ |  | 
6 | O=c1[nH]c(-c2ccc(Cl)cc2O)nc2ccccc12 [Embodiment 10, 2-(4-chloro-2-hydroxyphenyl)quinazoline-4(3H)-on] | Turquoise | ++++ |  | 
7 | O=c1[nH]c(-c2ccc(Cl)cc2O)nc2ccc(Cl)cc12 [Embodiment 11, 6-chloro-2-(4-chloro-2-hydroxyphenyl)quinazoline-4(3H)-on] | Turquoise | ++++ | 490 nm | ++++
8 | O=c1[nH]c(-c2ccc(Cl)cc2O)nc2cc(Cl)ccc12 [Embodiment 12, 7-chloro-2-(4-chloro-2-hydroxyphenyl)quinazoline-4(3H)-on] | Turquoise | +++ |  | 
9 | O=c1[nH]c(-c2cc(F)ccc2O)nc2ccccc12 [Embodiment 13, 2-(5-fluoro-2-hyroxyphenyl)quinazoline-4(3H)-on] | Green | +++++ |  | 
10 | O=c1[nH]c(-c2c(O)cccc2Cl)nc2ccccc12 [Embodiment 16, 2-(2-chloro-6-hyrdoxyphenyl)quinazoline-4(3H)-on] | Green | ++++ |  | 
11 | O=c1[nH]c(-c2cccc(Cl)c2O)nc2ccccc12 [Embodiment 17, 2-(3-choloro-2-hydroxyphenyl)quinazoline-4(3H)-on] | Green | ++++ |  | 
